The values that follow come from PubChem BioAssay AID434947 (Broad Institute, 2010).

Broadly, the EC50 is the concentration at which the effect is half-maximal.

Hit rate of the full screen: of about 2,200 compounds, about 15 (0.7%) were called active.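 Rule for the calls: active = fitted half-maximal concentration for loss of luminescence signal no more than a set limit of log units above the top tested concentration; inconclusive = flat fit with 30 to 70% signal loss, or invalid fit; inactive = half-maximal concentration above that set limit.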 The list shows a part of the results. Some results are limits rather than exact numbers.

The nature of the test: inhibitors of ADP-Glo detection reagents, dose response, artefact control for GSK3beta inhibitor project, biochemical, luminescence, cell-free, homogeneous (AID 434947). The settings on record: 5 uM ADP. (In general: ADP-Glo first removes unused ATP, then detects ADP through luciferase.)
With `CCn1c(SCC(=O)Nc2ccc(N(C)C)cc2)nnc1C1CC1`, the EC50 was inactive: > 30 µM. For `Cc1cc2c(Nc3ccc(O)cc3)ncnc2s1` the value was inactive: > 30 µM; for `O=C(Nc1ccc([N+](=O)[O-])cn1)C1CC1`, inactive: > 30 µM; for `COC(=O)c1ccc(CSc2ccc3nnc(-c4ccc(F)cc4)n3n2)o1`, inactive: > 30 µM. For `OC(COc1ccc(OCC(O)CN2CCN(Cc3ccccc3)CC2)cc1)CN1CCN(Cc2ccccc2)CC1` (centres undefined) the value was inactive: > 30 µM. In the case of `CC(C)Nc1nc(NC(N)=S)nc(NC(C)C)n1` it was inactive: > 30 µM. Consider `COc1ccc(NC(=O)c2sc(SC)nc2N)cc1`, for which the EC50 was inactive: > 30 µM.

As for `O=c1c2ccccc2cnn1-c1nc2ccccc2[nH]1`, the EC50 is active: 25.9 µM. In the case of `N/C(=N\NC(=O)c1ccc(Cl)cc1)c1cnccn1` it was inactive: > 30 µM; in that of `COc1ccc(/C=C2\SC(=Nc3ccccc3OC)NC2=O)cc1`, inactive: > 30 µM; in that of `CCN(Cc1ccccc1)S(=O)(=O)c1ccc2c(c1)NC(=O)CC(=O)N2`, inactive: > 30 µM. In the case of `COc1ccc(-c2c(N)nnc3c2[nH]c2ccccc23)cc1OC` it was inactive: > 30 µM; in that of `O=C(CSc1nnc(CNC(=O)c2c(F)cccc2F)o1)NCc1ccc(F)cc1`, inactive: > 30 µM; in that of `CC(C)OCCCNC(=O)c1ccc(CS(=O)(=O)Cc2ccccc2F)o1`, inactive: > 30 µM. In the case of `Cc1cccc(Nc2nc(N3CCN(C)CC3)nc(N)c2[N+](=O)[O-])c1` it was inactive: > 30 µM; in that of `Cc1cc(C)c(C)c(S(=O)(=O)Nc2ccccc2C(=O)NCCCn2ccnc2)c1C`, inactive: > 30 µM. `Cc1ccsc1C1NC(=O)c2c(sc3c2CCCC3)N1` (centres undefined): the EC50 is inactive: > 30 µM. In the case of `COc1ccc(-c2nn(-c3ccccc3)cc2/C=N/NS(=O)(=O)c2ccccc2)cc1` it was inactive: > 30 µM.

For the molecule `CC(C)Nc1nc(-c2ccncc2)nc(-c2ccc(Cl)cc2)c1C#N`, the EC50 is inactive: > 30 µM.

Take `COc1ccc(CN(CC(=O)NCCc2ccccc2)C(=O)CCC(=O)Nc2ccccn2)cc1`: the EC50 is inactive: > 30 µM. For `CN(C)Cc1c(O)ccc2c3c(c(=O)oc12)CCCCC3` the value was inactive: > 30 µM. In the case of `COC(=O)c1ccc(O)cc1` it was inactive: > 30 µM; in that of `COc1ccc(N(C(=O)c2ccncc2)S(=O)(=O)c2cccc([N+](=O)[O-])c2)cc1`, inactive: > 30 µM. For `CC[n+]1c(/C=C/Nc2ccccc2)sc2ccccc21` the value was inactive: > 30 µM; for `CC1(C)CC(CCNC(=O)CCl)(c2ccccc2)CCO1` (centres undefined), inactive: > 30 µM. With `Oc1[nH]c2ccccc2c1C=Nc1ccc2c(c1)OCO2`, the EC50 is inactive: > 30 µM. In the case of `Nc1nonc1-n1nnc(C(=O)N/N=C/c2cccc(O)c2)c1CN1CCCC1` it was inactive: > 30 µM; in that of `COC(=O)CSc1ccc2nnc(-c3ccc(OC)c(OC)c3)n2n1`, inactive: > 30 µM; in that of `O=C(OCCN1CCCCC1)c1ccc(O)cc1`, inactive: > 30 µM. `O=C(COc1ccccc1)Nc1ccc2c(c1)C(=O)N(CC1CCCO1)C2=O` (centres undefined): the EC50 is inactive: > 30 µM.

Turning to `O=C(NNC(=O)C1[C@H]2CCCC[C@@H]12)c1ccc(=O)oc1` (some centres undefined), the EC50 is inactive: > 30 µM. For `COC(=O)c1ccc(NC(C(=O)OC)C(C)C)c([N+](=O)[O-])c1` (centres undefined) the value was inactive: > 30 µM; for `CN1CCN(CCC2Oc3cc([N+](=O)[O-])ccc3NC2=O)CC1` (centres undefined), inactive: > 30 µM; for `CCCCc1cc(=O)oc2cc(OCC(=O)N(CC)CC)ccc12`, inactive: > 30 µM. `CC(C)CCNc1nc(N)c([N+](=O)[O-])c(NCC2CCCO2)n1` (centres undefined): the EC50 was inactive: > 30 µM. In the case of `Cc1cc(N2CCN(C(=O)c3ccco3)CC2)c2ccccc2n1` it was inactive: > 30 µM.

For `COC(CNc1nc(SC)nc2sc3c(c12)CCN(C)C3)OC`, the EC50 is inactive: > 30 µM. In the case of `Cc1nc(C)c(-c2csc(Nc3ccc(C(=O)O)c(O)c3)n2)s1` it was inactive: > 30 µM; in that of `Cc1cc(NC(=O)CSc2nc(-c3ccccc3)c(C#N)c(=O)[nH]2)no1`, inactive: > 30 µM. For `COC(=O)C1=C(C)N(CCCC(=O)O)C(=O)NC1c1ccc([N+](=O)[O-])cc1` (centres undefined) the value was inactive: > 30 µM; for `CCN(CC)Cc1c(C(=O)N/N=C/c2ccncc2)nnn1-c1nonc1N`, inactive: > 30 µM.

For `O=C1CC(c2ccc(O)cc2)Oc2cc(O)ccc21` (centres undefined), the EC50 is inactive: > 30 µM. In the case of `CCCCc1cc(=O)oc2cc(OS(C)(=O)=O)ccc12` it was inactive: > 30 µM; in that of `COc1ccc2occ(C(=O)c3cccs3)c2c1`, inactive: > 30 µM. On to `CCOC(=O)C1CCN(CC(O)COC(CC)c2ccccc2)CC1` (centres undefined), for which the EC50 is inactive: > 30 µM. For the molecule `COc1cccc(C(=O)N/N=C/c2ccc(Oc3ccc([N+](=O)[O-])cn3)c(OC)c2)c1`, the EC50 is inactive: > 30 µM. In the case of `O=C(Nc1ccc(N2CCN(Cc3ccccc3)CC2)cc1)c1ccccc1[N+](=O)[O-]` it was inactive: > 30 µM; in that of `CC(CC(=O)N1CCN(c2cccc(Cl)c2)CC1)S(=O)(=O)c1ccc2c(c1)NC(=O)CO2` (centres undefined), inactive: > 30 µM; in that of `O=C1N/C(=N/S(=O)(=O)Cc2ccccc2)S/C1=C/c1ccc2c(c1)OCO2`, inactive: > 30 µM. `CC(C)C(=O)NC(=S)Nc1ccc(S(=O)(=O)N2CCCC2)cc1`: the EC50 is inactive: > 30 µM. In the case of `CN(C)Cc1c(O)ccc2occ(C(=O)c3ccccc3)c12` it was inactive: > 30 µM; in that of `O=[N+]([O-])c1ccccc1Oc1ccc(Cl)c2cccnc12`, inactive: > 30 µM.

Turning to `O=C1CC(c2ccc(O)c(O)c2)Oc2cc(O)cc(O)c21` (centres undefined), the EC50 is inactive: > 30 µM. For `Nc1nc(Nc2ccccc2)nc(NC2CCCCC2)c1[N+](=O)[O-]` the value was inactive: > 30 µM; for `CN(c1ncnc(N)c1[N+](=O)[O-])C1CCS(=O)(=O)C1` (centres undefined), inactive: > 30 µM. For the molecule `COc1ccc(-c2nn(-c3ccccc3)cc2/C=N/Nc2ccccn2)cc1OC`, the EC50 was inactive: > 30 µM. For `COCCCNC(=O)c1cccn2c(=O)c3cc4ccccc4cc3nc12` the value was inactive: > 30 µM; for `COC(=O)CSc1nnc(-c2ccncc2)o1`, inactive: > 30 µM. For `O=C(NC1CCCCCC1)C1CCCN(S(=O)(=O)c2cccs2)C1` (centres undefined) the value was inactive: > 30 µM.
